# Library screening results

Data taken from ChEMBL document CHEMBL3988442, “University of Dundee, Small-Polar-MMV Screening Library” (2021).

The filed quantity is “Percent Effect” (%). The record does not define 0% and 100%; most values in the screen are far below 50% and negative numbers occur (in some assays of this library far below -100). The compounds are a random part of those screened. Two or more numbers in one place are separate tests of the same structure; such repeats can differ widely.

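Viability assay of Plasmodium falciparum sporozoites; the read-out is not stated. The concentration is filed as 10 mM, unlikely as a test dose, so the dose is not known. Direction is inferred from retests: higher values go with lower viability. Strong results were mostly tested again. About 34,000 compounds were tested under these conditions; 0.84% (about 280) showed 50% or more at least once.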

structure,percent effect
CCOc1ccc(Cl)c(C(=O)NCc2ccc(C(=O)NC)cc2)n1,-6.119%
CSCCC(=O)N1CCCC(n2ccnc2)C1 (centres unmarked),-3.511%
Cc1ccsc1C(=O)N1CC[C@@H](N(C)C)[C@@H]1Cc1cnn(C)c1.O=C(O)C(F)(F)F,6.787%
Cc1ncncc1-c1ccnc(NC(C)C)n1,-0.5927%
COc1ccccc1OCC(=O)NS(=O)(=O)c1ccccc1F,-4.353%
O=C(NCC1CC1)C1=NOC2(CCN(Cc3ccc4c(c3)OCO4)C2)C1 (centres unmarked),5.519%
CC(C)(C)c1ncc2c(n1)CN(C(=O)c1ccc(-c3nc[nH]n3)cc1)C2,-0.8419%
O=C(O)C(F)(F)F.O=c1ccc2c([nH]1)CCC(NCc1ccc3c(c1)OCO3)C2 (centres unmarked),7.807%
CC(NC(=O)NC1CC1)c1nc(-c2ccccc2)cs1 (centres unmarked),-12.91%
COc1cccc(CN2CCCC(Cn3nc(C)nc3C)C2)c1 (centres unmarked),8.301%
[H][C@]12CCN(C(C)=O)C[C@@]1([H])OCCN(C(=O)c1ccco1)C2,4.498%
Cc1ccc(CCC(=O)N2CCOCC2c2ncon2)c(C)c1 (centres unmarked),7.394%
O=C(c1cc(Cl)cc(Cl)c1)N1CCN(c2nccs2)CC1,-10.04%
CC(OCC1CC1)C(=O)N1CCCN(Cc2cscn2)CC1 (centres unmarked),0%
CC(=O)N1CCCC(c2ccccn2)C1 (centres unmarked),9.546%
OC1CCN(c2ccc(CNc3nc4ccccc4s3)cc2F)CC1,62.02% and 41.95% and 71.05%
O=C(O)C(F)(F)F.[H][C@@]12CCN(CCc3ccccc3)C[C@]1([H])O[C@@H](C(=O)NC)C2,4.948%
[H][C@]12CCN(C(=O)c3ccc4c(c3)CCCC4)CC[C@]1([H])OCC(=O)N2,7.178%
Cc1cc(F)ccc1N1CCCC(NC(=O)CCc2ccncc2)C1 (centres unmarked),-19.52%
Cc1cc(C)c2cc(CNC3CCCCC3)c3nn(C)c(=O)n3c2c1,7.995%
CC1CCCN(Cc2csc(-c3ncccn3)n2)CC1 (centres unmarked),58.23% and -0.1329% and 64.63%
CNC(=O)c1ccc(-c2ccccc2)n1C,-4.116%
CCN(C)c1ncnc2c1CCN(c1ccc(C)nn1)CC2,-13.13%
Cc1ccc2c(CC(=O)N3C[C@@H](O)[C@H](N(C)C)C3)coc2c1,2.454%
O=C(C1CC1)N1CCC(c2nc(O)c3c(n2)CCN(C2CCCC2)C3)C1 (centres unmarked),-5.652%
Cc1ccn(CCNC(=O)C2(C)CC(c3ccccc3)=NO2)n1 (centres unmarked),1.873%
CC(C)(C)OCC1CN(Cc2cccs2)S(=O)(=O)c2cnccc2O1 (centres unmarked),13.3%
CCc1nnc(CN(C)c2nc(C3CCCC3)nc3c2cnn3C)o1,-15.9%
O=C(NCCNc1ncccn1)N1CCN(C2CCCC2)CC1,9.852%
O=C(c1cscn1)N1CCC(Cc2cnc3[nH]ccc3c2)C1 (centres unmarked),-3.86%
CC(C)n1c2ccccc2c2c1cc(C(=O)N(C)C)n2S(C)(=O)=O,2.026%
COc1ccc2c(c1)CN(CC1CC1)C(=O)CCN2CC(C)(C)O,13.3%
[H][C@@]12CCN(S(=O)(=O)c3ccccc3)C[C@]1(c1nnc(C)o1)CCO2,5.954%
CCCS(=O)(=O)N1Cc2nccn2CC(Cn2cncn2)C1 (centres unmarked),1.386%
Cl.Oc1cc(C2CCNCC2)nc(-c2ccsc2)n1,11.55%
CN(Cc1nnc(C2CC2)n1C)C1CCN(Cc2ccccc2F)C1 (centres unmarked),-2.713%
CC(NC(=O)NCCCO)c1ccc2c(c1)NC(=O)CO2 (centres unmarked),7.328%
CC(=O)N1CCc2nnc(C3CCCCN3CC3CCCCC3)n2CC1 (centres unmarked),3.21%
Cc1csc(N2CCN(C(=O)C(C)n3cncn3)CC2)n1 (centres unmarked),5.794%
C1CN(CCN2CCOCC2)CCN1,-3.923%
CC(=O)Nc1nc(CN2CCOC(Cn3cc(C)cn3)C2)cs1 (centres unmarked),-2.775%
CCCS(=O)(=O)CC(=O)N1CCCC1c1noc(C2CC2)n1 (centres unmarked),-26.76% and -10.95%
CC(C)c1nn(C)c(N(C)C)c1CNCc1cscn1.Cl,-3.657%
Cc1cnn(CC2CN(CC(=O)Nc3ccncc3)CCO2)c1 (centres unmarked),-1.48%
[H][C@@]12OCCN(CCN3CCCCC3)[C@@]1([H])CC[C@@H]2OCc1ccccn1,8.787%
CC(C)n1ccnc1C1CCN(C(=O)c2ccccn2)CC1,-6.404%
Cc1ccc(C)c(CSc2nnc(C(N)C(C)C)o2)c1.Cl (centres unmarked),-15.48%
CN(Cc1nnc(-c2ccco2)o1)C1CCCN(c2cccnn2)C1 (centres unmarked),7.568%
CN(Cc1ccco1)C(=O)c1cccc(N2CCCC2=O)c1,9.763%
CC(=O)N1CCCC(C(=O)c2cnn(-c3ccc(F)cc3)c2N)C1 (centres unmarked),27.98% and 70.48% and 45.02%
Cn1ncc2c(=O)[nH]c(CN(Cc3ccco3)C3CCCC3)nc21,10.63%
O=C(O)C(F)(F)F.O=C(O)C(F)(F)F.[H][C@@]12COC[C@]1(COc1ccccn1)CN(C1CCOCC1)C2,15.01%
Cn1cc(CNc2ccc(CCO)cc2)c(-c2ccncc2)n1,-2.514%
O=C(O)[C@@H]1CN(C(=O)CC2CCCC2)C[C@H]1c1ccc(F)cc1,4.737%
Fc1cccnc1N1CCOCC2(CCCN(c3nncs3)C2)C1.O=C(O)C(F)(F)F (centres unmarked),-11.92%
O=C(O)c1nnn(Cc2cccc(C(F)(F)F)c2)c1-c1cccnc1,2.412%
CC(NC(=O)NCCCO)c1ccc2c(c1)OCCO2 (centres unmarked),6.934%
CN1CCCC1CNC(=O)CCCOc1ccc(Br)cc1 (centres unmarked),4.866%
Cc1ccc(C(=O)Nc2cc(C(C)C)n[nH]2)cn1,57.73% and -35.76% and -48.13%
COCCN1CCCc2sc(C(=O)NCC3CCCO3)nc21 (centres unmarked),7.42%
O=C(O)C(F)(F)F.[H][C@@]12CCCO[C@]1([H])[C@@H](Oc1cccnc1)CN2S(=O)(=O)N(C)C,-10.17%
[H][C@]12CC[C@@]3(N=C(CC)N(C)C3=O)[C@@]1([H])CN(C(=O)NC(C)C)C2,-6.313%
O=C(c1ccc2c(c1)CCC2)N1CC[C@H](O)[C@]2(CCCO2)C1,-1.506%
CN(C)c1ccc(C(=O)Nc2ccn(CCc3ccncc3)n2)cc1,-16.35%
CN(Cc1nc(-c2ccco2)no1)C1CCCN(c2cccnn2)C1 (centres unmarked),14.72%
CC1=C(C(=O)NCc2cccnc2-n2cnc3ccccc32)OCCO1,-7.387%
N#Cc1ccccc1OCCN1CCCCC1Cn1cncn1 (centres unmarked),9.12%
CCc1ncc2c(n1)CN(Cc1cccc3c1OCCO3)CC2,11.28%
COCCNC(=O)C(C)n1cc(Br)cn1 (centres unmarked),7.197%
CC(c1ccc(F)cc1)N1CCN(Cc2nccn2C)CC1 (centres unmarked),14.15%
NC(=O)c1ccc2c(c1)nc1n2CCN(Cc2ccccc2)C1,-7.779%
CC(C)n1ccnc1C1CCN(C(=O)C2COc3ccccc3O2)CC1 (centres unmarked),-9.252%
[H][C@@]12CN(C(=O)C3CCOC3)C[C@]1([H])C(=O)N(Cc1cccc(C)c1)C2 (some centres unmarked),9.114%
[H][C@]12CC[C@]([H])(CN(Cc3ccccn3)C1)N(Cc1cc(C(C)(C)C)[nH]n1)C2,-2.615%
CN(Cc1ccccc1Br)C(=O)Cn1nc(-c2ccc(F)cc2)oc1=O,10.71%
O=C(NCCCNc1ccc(C(F)(F)F)cn1)c1ccc(F)cc1F,4.796%
[H][C@]12CC[C@]([H])(CN(Cc3ccccc3C)C1)N(CC1CCC1)C2=O,-7.105%
Cc1nn(C)c(Cl)c1C1CCCN1Cc1nnc(C2CC2)o1 (centres unmarked),6.732%
Cc1ccc(CN(CCCn2ccnc2)Cc2cnc(N(C)C)nc2)s1.O=C(O)CC(O)(CC(=O)O)C(=O)O,7.459%
CNc1ccnc(NCCC(=O)Nc2ccccc2OC)n1,5.077%
CCC(=O)N1CCc2nc3cc(OC)c(OC)cc3c(=O)n2CC1,-6.517%

8 of the entries, repeated:

structure,percent effect
COc1cccc(CN2CCCC(Cn3nc(C)nc3C)C2)c1 (centres unmarked),8.301%
CNC(=O)c1ccc(-c2ccccc2)n1C,-4.116%
Cl.Oc1cc(C2CCNCC2)nc(-c2ccsc2)n1,11.55%
O=C(O)C(F)(F)F.O=c1ccc2c([nH]1)CCC(NCc1ccc3c(c1)OCO3)C2 (centres unmarked),7.807%
O=C(NCCCNc1ccc(C(F)(F)F)cn1)c1ccc(F)cc1F,4.796%
CN(Cc1nnc(C2CC2)n1C)C1CCN(Cc2ccccc2F)C1 (centres unmarked),-2.713%
Cc1cnn(CC2CN(CC(=O)Nc3ccncc3)CCO2)c1 (centres unmarked),-1.48%
CC(NC(=O)NC1CC1)c1nc(-c2ccccc2)cs1 (centres unmarked),-12.91%